Experimental data reported in article PMC3679059.

Chains of the proteins cited; added tags and fusions are not shown. Lines headed by an entry give the natural chain unless they say otherwise; changes in a name come on top. Residues count along the entry.
UniProt O22476, residues 24-1196: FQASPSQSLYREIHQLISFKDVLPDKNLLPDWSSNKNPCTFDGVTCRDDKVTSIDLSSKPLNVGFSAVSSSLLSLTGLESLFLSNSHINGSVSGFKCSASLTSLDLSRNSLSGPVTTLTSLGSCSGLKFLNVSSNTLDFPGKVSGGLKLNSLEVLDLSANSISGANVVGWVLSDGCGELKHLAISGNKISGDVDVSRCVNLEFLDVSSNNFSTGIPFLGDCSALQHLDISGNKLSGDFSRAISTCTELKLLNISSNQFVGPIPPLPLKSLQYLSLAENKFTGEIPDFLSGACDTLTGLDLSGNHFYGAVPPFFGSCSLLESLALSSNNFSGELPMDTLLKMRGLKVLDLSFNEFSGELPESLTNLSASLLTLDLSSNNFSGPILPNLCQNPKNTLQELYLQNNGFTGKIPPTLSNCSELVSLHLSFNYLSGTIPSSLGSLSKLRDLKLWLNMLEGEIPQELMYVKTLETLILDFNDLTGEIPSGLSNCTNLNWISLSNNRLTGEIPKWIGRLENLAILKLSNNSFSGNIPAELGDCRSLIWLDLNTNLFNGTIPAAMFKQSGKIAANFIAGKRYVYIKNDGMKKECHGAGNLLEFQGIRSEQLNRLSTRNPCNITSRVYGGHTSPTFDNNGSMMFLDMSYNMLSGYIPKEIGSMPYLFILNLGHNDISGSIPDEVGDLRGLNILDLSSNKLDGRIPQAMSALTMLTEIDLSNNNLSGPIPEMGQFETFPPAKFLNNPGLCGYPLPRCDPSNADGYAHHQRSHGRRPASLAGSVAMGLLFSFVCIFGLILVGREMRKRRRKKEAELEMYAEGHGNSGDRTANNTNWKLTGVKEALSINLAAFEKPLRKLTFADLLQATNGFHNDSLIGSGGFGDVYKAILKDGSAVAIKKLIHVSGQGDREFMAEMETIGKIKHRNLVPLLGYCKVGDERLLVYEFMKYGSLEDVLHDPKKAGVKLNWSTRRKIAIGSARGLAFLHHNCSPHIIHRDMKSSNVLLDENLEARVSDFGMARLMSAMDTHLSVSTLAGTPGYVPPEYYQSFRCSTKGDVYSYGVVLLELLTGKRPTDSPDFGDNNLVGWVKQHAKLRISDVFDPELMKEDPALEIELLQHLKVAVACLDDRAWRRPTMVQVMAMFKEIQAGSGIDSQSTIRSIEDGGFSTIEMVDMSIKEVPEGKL
UniProt Q7DZ57: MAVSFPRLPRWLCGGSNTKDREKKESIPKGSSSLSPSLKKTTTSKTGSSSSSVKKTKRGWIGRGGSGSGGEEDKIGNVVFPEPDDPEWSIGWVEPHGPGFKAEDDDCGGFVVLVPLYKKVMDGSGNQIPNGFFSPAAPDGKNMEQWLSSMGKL

Tests used:
Test in all cases: condition: only membrane extracts mixed post expression instead of co-expression; co-IP; proteins expressed in separate N. benthamiana leaves and membrane extracts mixed post expression (CCI1 post); IP with anti-GFP, blot with anti-FLAG
[1] = target: T1, BAM1-GFP (full-length) (Arabidopsis) (UniProt O49545)
T1 sequence: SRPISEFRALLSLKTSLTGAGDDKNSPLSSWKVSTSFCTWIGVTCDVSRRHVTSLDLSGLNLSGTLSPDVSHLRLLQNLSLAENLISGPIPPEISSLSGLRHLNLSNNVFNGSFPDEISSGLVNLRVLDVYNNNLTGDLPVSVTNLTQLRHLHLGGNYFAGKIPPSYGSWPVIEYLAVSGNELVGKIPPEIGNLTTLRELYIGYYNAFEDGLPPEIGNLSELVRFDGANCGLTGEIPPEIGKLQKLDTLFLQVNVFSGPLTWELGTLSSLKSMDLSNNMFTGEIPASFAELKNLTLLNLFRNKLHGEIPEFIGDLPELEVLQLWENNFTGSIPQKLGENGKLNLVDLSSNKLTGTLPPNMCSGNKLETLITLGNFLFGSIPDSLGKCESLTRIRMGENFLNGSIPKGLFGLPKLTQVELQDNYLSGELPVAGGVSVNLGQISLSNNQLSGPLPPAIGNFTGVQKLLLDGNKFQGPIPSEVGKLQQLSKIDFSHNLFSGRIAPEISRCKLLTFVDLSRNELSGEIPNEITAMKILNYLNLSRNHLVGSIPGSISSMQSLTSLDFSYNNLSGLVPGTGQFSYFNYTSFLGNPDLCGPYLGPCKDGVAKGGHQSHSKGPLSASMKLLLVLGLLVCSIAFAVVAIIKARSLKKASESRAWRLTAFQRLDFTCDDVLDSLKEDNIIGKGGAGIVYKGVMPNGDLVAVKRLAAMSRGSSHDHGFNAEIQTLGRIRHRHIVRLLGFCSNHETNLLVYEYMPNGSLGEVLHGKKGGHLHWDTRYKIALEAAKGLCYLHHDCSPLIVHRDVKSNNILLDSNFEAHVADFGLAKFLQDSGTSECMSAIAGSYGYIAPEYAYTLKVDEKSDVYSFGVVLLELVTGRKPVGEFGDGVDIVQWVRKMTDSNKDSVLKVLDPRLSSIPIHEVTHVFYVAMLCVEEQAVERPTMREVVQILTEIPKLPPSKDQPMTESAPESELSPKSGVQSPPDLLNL

[2] = target: T2, BAM2-GFP (full-length) (Arabidopsis) (UniProt Q9M2Z1)
T2 sequence: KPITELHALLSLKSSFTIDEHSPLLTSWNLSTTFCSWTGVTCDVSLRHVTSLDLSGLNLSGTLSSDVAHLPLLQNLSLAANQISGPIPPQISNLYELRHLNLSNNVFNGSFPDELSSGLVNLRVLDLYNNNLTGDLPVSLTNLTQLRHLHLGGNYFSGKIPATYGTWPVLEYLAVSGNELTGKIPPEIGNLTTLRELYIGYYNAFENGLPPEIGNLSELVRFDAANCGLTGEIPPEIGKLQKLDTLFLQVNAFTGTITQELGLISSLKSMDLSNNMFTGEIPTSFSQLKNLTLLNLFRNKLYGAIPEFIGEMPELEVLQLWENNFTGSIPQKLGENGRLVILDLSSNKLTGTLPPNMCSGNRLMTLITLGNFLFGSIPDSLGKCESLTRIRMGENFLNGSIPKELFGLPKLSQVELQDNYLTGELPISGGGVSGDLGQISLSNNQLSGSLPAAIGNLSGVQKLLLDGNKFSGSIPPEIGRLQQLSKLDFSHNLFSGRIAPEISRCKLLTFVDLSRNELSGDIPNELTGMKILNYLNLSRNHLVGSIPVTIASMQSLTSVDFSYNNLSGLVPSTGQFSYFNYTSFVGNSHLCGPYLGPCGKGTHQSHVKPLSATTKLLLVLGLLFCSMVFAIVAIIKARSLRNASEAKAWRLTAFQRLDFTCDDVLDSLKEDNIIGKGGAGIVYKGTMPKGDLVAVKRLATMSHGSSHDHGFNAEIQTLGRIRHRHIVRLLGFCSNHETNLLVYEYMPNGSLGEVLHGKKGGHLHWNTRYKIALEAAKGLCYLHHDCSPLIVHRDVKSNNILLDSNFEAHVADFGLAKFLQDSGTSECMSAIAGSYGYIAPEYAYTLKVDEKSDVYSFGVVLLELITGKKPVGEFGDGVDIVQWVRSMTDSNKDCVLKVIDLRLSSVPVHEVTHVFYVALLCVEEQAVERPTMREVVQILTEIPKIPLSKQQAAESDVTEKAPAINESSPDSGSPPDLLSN

BRI1-GFP (full-length) = BRI1-GFP (full-length) (UniProt O22476)
[3] = target: T3, CLV2-GFP (full-length) (Arabidopsis) (UniProt O80809)
T3 sequence: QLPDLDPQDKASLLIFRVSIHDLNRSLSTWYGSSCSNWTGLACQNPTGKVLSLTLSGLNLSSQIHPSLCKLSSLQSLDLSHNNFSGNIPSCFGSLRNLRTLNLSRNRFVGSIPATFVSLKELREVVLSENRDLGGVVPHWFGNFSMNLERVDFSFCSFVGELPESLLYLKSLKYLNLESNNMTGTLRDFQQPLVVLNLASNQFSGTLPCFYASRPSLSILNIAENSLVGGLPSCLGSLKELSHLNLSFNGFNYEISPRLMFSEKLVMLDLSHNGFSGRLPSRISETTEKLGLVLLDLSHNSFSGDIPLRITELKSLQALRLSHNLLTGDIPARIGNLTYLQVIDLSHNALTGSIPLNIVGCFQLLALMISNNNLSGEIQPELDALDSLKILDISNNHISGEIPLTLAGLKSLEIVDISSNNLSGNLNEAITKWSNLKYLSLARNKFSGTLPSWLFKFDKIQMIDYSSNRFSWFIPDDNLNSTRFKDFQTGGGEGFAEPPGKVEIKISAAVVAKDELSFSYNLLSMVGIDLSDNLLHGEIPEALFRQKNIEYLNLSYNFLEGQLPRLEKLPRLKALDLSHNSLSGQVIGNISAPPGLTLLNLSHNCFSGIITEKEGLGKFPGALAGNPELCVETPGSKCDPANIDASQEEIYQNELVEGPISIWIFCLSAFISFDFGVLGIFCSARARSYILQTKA

Measured: binding

CCI1-FLAG (from UniProt Q7DZ57)
no binding: [1] | [2] | BRI1-GFP (full-length) | [3]

These are yes or no findings as the source states them, for the method shown. In cells and extracts the contact can be indirect. For some of these results: Sequences can lack the tags named with a protein.
